At least one structure is not confirmed: it was looked up by name or label, or the drawing left a doubt.
Columns and labels:
[1] = system: Lactobacillus pentosus strain OL79; experiment: Minimum inhibitory concentration (MIC) antibiotic susceptibility of strain OL79; assay type: cell-based; conditions: MIC of antibiotic against strain OL79 versus EFSA cutoff
[2] = system: Lactobacillus pentosus strain OL79; conditions: MIC cutoff values for Lactobacillus pentosus strain OL79; cited from earlier work

| Compound | Susceptibility [1] | EFSA Break Point [2] [mg/L] |
| --- | --- | --- |
| CCC[C@@H]1C[C@@H](C(=O)N[C@@H]([C@H]2O[C@H](SC)[C@H](O)[C@@H](O)[C@H]2O)[C@H](C)Cl)N(C)C1 [Clindamycin] | sensitive | 4 |
| NC[C@H]1O[C@H](O[C@H]2[C@H](O)[C@@H](O[C@H]3O[C@H](CO)[C@@H](O)[C@H](N)[C@H]3O)[C@H](N)C[C@@H]2N)[C@H](O)[C@@H](O)[C@@H]1O [Kanamycin] | sensitive | 64 |
| CN(C)[C@@H]1C(O)=C(C(N)=O)C(=O)[C@@]2(O)C(O)=C3C(=O)c4c(O)cccc4[C@@](C)(O)[C@H]3C[C@@H]12 [Tetracycline] | sensitive | 32 |

Source: US20230256039A1, “COMPOSITIONS AND METHODS TO INCREASE PRODUCTION OF HYDROXYTYROSOL” (priority 2022, published 2023)
